Test results published in patent US7351744B2, “Naphthalene derivatives as termite repellents and toxicants” (Board of Supervisors of Louisiana State University and …, priority 2003, dated 2008).

Test system: C. formosanus workers and soldiers
Test: Topical application toxicity assay
Format: in vivo, Coptotermes formosanus
Method: Dose-mortality data were analyzed using probit analysis as adapted for PC use (POLO-PC), which automatically corrected for control mortality using Abbott's transformation. See, e.g., R. M Russell et al., “POLO: a new computer program for probit analysis,” Bull. Entomol. Soc. Am., vol. 23, pp. 209-213 (1977); and LeOra Software, “POLO-PC, a user's guide to probit analysis or logit analysis” (1987). The LD50s of workers and soldiers from four tested colonies (y) were plotted against the average weight of tested termites (x) to establish a linear regression equation and conduct correlation analyses. Mean survival, food consumption and tunnel areas were compared among treatments using analysis of variance (ANOVA), followed by least significant difference procedures. See, SAS Institute, SAS/STAT User's Guide: version 8, SAS Institute, Inc., Cary, N.C. (1999). In two-choice assays using either treated filter paper or treated sand, the parameters measured in the two lateral sides of each treatment were compared using paired t-tests. All data were judged at α=0.05.
Acute toxicity of 2′-acetonaphthone was bioassayed using doses that ranged from 1.25 to 20 ug/termite. At stock solution of 2′-acetonaphthone was prepared ([…]). Dilutions were made by taking aliquots from the stock solution (62.5, 125, 250, 375, 500, 750, and 1000 μl), and adjusting each volume to 2 ml with acetone. A group of 20 workers or soldiers (from colonies BS, WB, E and CR) were placed in a Petri dish (6 cm×1.5 cm) and chilled on top of an ice brick (30.32 cm×17.78 cm×3.81 cm; IceBerg, Mid-Lands Chemical Company, Inc., Miami, Fla.) to slow their movement. Each termite was treated with a topical dose in 0.2 μl acetone to the dorsum of the mesothorax using a Hamilton PB 600 Repeating Dispenser equipped with a 10 μl syringe (Hamilton, Reno, Nev.). The experimental termites were treated with doses equivalent to 1.25, 2.50, 5.0, 7.5, 10.0, 15.0, and 20.0 μg/termite. Control termites were dosedwith only 0.2 μl acetone. Five replicates, each with 20 workers or 20 soldiers, were used for each dose and control. For each replicate, termites were maintained in a plastic container (5.5 cm×3.7 cm, Pioneer Pckaging Co., North Dixon, Ky.), each provided with a filter paper (Whatman #2, 55 mm diameter) wetted with 250 μl double distilled water (DDH20). The containers were covered with lids, and kept for 2 days at room temperature (26-28° C.). Daily mortality in each dish was recorded. Termites were considered dead if unable to right themselves when prodded with a fine paint brush.

Question: Which results are given for `CC(=O)c1ccc2ccccc2c1` [2′-acetonaphthone]?
Answer: Slope ± SE (LD-P line) (colony BS, 24 hours, Soldier): 2.06 ± 0.20; Slope ± SE (LD-P line) (colony BS, 24 hours, Worker): 2.52 ± 0.22; Slope ± SE (LD-P line) (colony BS, 48 hours, Soldier): 4.22 ± 0.40; Slope ± SE (LD-P line) (colony BS, 48 hours, Worker): 3.35 ± 0.30; Slope ± SE (LD-P line) (colony CR, 24 hours, Soldier): 3.51 ± 0.26; Slope ± SE (LD-P line) (colony CR, 24 hours, Worker): 3.27 ± 0.24; Slope ± SE (LD-P line) (colony CR, 48 hours, Soldier): 3.95 ± 0.33; Slope ± SE (LD-P line) (colony CR, 48 hours, Worker): 3.57 ± 0.33; Slope ± SE (LD-P line) (colony E, 24 hours, Soldier): 2.93 ± 0.19; Slope ± SE (LD-P line) (colony E, 24 hours, Worker): 2.99 ± 0.20; Slope ± SE (LD-P line) (colony E, 48 hours, Soldier): 2.79 ± 0.19; Slope ± SE (LD-P line) (colony E, 48 hours, Worker): 2.55 ± 0.19; Slope ± SE (LD-P line) (colony WB, 24 hours, Soldier): 3.09 ± 0.27; Slope ± SE (LD-P line) (colony WB, 24 hours, Worker): 2.29 ± 0.24; Slope ± SE (LD-P line) (colony WB, 48 hours, Soldier): 3.12 ± 0.49; Slope ± SE (LD-P line) (colony WB, 48 hours, Worker): 4.99 ± 0.74; tolerance of colony E versus colony WB (termites from colony E vs colony WB): 4 fold
